Source: patent US9849110B2, “Intermittent fibrate administration method” (Biocopea Limited, priority 2012, dated 2017)
For at least one compound, name, drawing or mass did not settle the structure.

Assays:
[1] = Example 3: blood test of LDL, HDL and cholesterol levels, periodic treatment with fluvastatin, person; assay type: in vivo, human
Experimental: A person visits their physician and during the visit undergoes a blood test. The person is found to have an LDL level of 87 mg/dl, HDL level of 41 mg/dl and a cholesterol level of 266 mg/dl. […] To remind the person to take fluvastatin following the two month breaks, the physician inputs the days that the person is to take fluvastatin and arranges for the person to receive text messages through Skype that the person will receive on their cell phone and their personal computer. Two months after taking the first weeks dose of atorvastatin, the person receives a reminder by text to take the second weeks dose of atorvastatin two months later. This repeats every two months. The person returns to the physician for a follow on blood test six months later and they are found to have LDL level of 112 mg/dl, HDL level of 47 mg/dl and a cholesterol level of 188 mg/dl. At this point the physician changes the frequency of dosing to one week taking fluvastatin followed by a break of three months at a dose of 40 mg, with this schedule repeating thereafter. The physician inputs the new schedule so that the person receives text messages every three months to restart taking fluvastatin. A year later, the person returns to the physician for a blood test. […] The physician recommends that the person continue to take fluvastatin for a week followed by a three month break and repeating this schedule thereafter, which the person does. A year later the person returns to the physician for a blood test. […] The person continues taking the atorvastatin for a week followed by a three month break and repeating this schedule for the rest of their life, with their LDL levels ranging from 115-120, HDL levels ranging from 45-51 and their cholesterol levels ranging from 151-162.

[2] = Example 1: blood test of LDL, HDL and cholesterol levels, periodic treatment with simvastatin, person; assay type: in vivo, human
[3] = 40 mg, one week on / three months off, a year later
[4] = 60 mg orally, one week on / two months off, after six months
[5] = one week on / three months off, a further year later
[6] = 20 mg orally daily, blood test six months later
[7] = 20 mg, one week on / a month off, a further six months later
[8] = 20 mg, one week on / a month off, after six months
[9] = 20 mg, one week on / one week off, after six months
[10] = 20 mg, one week on / two weeks off, after six months
[11] = one week on / a month off, for the rest of their life

SMILES: CC(C)n1c(/C=C/C(O)CC(O)CC(=O)O)c(-c2ccc(F)cc2)c2ccccc21 (stereo not shown) [fluvastatin]
- HDL level [1, 3]: 47 mg/dL
- LDL level [1, 3]: 118 mg/dL
- cholesterol level [1, 3]: 179 mg/dL
- HDL level [1, 4]: 47 mg/dL
- LDL level [1, 4]: 112 mg/dL
- cholesterol level [1, 4]: 188 mg/dL
- HDL level [1, 5]: 48 mg/dL
- LDL level [1, 5]: 118 mg/dL
- cholesterol level [1, 5]: 175 mg/dL

SMILES: CCC(C)(C)C(=O)O[C@H]1C[C@@H](C)C=C2C=C[C@H](C)[C@H](CC[C@@H]3C[C@@H](O)CC(=O)O3)[C@H]21 [simvastatin]
- HDL level [2, 6]: 48 mg/dL
- LDL level [2, 6]: 110 mg/dL
- cholesterol level [2, 6]: 172 mg/dL
- HDL level [2, 7]: 48 mg/dL
- LDL level [2, 7]: 115 mg/dL
- cholesterol level [2, 7]: 161 mg/dL
- HDL level [2, 8]: 48 mg/dL
- LDL level [2, 8]: 114 mg/dL
- cholesterol level [2, 8]: 160 mg/dL
- HDL level [2, 9]: 48 mg/dL
- LDL level [2, 9]: 111 mg/dL
- cholesterol level [2, 9]: 165 mg/dL
- HDL level [2, 10]: 48 mg/dL
- LDL level [2, 10]: 115 mg/dL
- cholesterol level [2, 10]: 162 mg/dL
- maintaining normal levels of LDL, HDL and cholesterol ([2]; once monthly administration): successful at maintaining normal levels of LDL, HDL and cholesterol
- HDL levels ranging [2, 11]: 45-51
- LDL levels ranging [2, 11]: 113-118
- cholesterol levels ranging [2, 11]: 155-173
